Laboratory results as given in the supplement of paper PMC11006884.
The entries are a selection whose mix differs from that of the whole data set.

By UniProt entry, the sequences of proteins in these tests, tags left out. Where a name states a change or a piece, a line headed by the entry shows the natural chain unless it says otherwise.
UniProt O14733: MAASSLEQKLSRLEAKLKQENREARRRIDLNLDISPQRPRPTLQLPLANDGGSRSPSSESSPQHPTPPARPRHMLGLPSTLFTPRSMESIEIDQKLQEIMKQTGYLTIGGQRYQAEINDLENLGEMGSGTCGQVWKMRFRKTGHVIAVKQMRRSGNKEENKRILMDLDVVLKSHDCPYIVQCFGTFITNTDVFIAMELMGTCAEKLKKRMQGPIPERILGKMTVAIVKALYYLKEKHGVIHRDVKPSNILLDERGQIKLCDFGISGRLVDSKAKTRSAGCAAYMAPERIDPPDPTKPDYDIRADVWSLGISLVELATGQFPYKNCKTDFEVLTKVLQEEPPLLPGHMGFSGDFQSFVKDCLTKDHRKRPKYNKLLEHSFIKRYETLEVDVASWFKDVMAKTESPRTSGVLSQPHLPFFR
UniProt O14880: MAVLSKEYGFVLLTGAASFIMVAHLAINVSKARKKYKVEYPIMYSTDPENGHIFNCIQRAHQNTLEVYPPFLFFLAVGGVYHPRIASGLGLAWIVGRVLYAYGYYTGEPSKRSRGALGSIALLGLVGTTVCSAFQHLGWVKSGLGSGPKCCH
UniProt O00244: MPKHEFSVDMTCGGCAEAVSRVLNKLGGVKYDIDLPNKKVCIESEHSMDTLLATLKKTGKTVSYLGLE
UniProt O14979: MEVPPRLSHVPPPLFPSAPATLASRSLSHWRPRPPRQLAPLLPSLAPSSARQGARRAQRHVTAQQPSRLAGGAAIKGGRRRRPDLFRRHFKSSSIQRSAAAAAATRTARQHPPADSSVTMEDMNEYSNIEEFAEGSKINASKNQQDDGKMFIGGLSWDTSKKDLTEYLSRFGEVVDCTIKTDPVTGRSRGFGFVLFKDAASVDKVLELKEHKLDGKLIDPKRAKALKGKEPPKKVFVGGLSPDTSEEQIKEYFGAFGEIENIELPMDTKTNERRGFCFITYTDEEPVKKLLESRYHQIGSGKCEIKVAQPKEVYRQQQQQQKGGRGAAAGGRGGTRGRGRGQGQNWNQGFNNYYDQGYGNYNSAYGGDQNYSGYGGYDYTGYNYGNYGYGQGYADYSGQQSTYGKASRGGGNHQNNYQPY
UniProt O14686, whole entry, looked up: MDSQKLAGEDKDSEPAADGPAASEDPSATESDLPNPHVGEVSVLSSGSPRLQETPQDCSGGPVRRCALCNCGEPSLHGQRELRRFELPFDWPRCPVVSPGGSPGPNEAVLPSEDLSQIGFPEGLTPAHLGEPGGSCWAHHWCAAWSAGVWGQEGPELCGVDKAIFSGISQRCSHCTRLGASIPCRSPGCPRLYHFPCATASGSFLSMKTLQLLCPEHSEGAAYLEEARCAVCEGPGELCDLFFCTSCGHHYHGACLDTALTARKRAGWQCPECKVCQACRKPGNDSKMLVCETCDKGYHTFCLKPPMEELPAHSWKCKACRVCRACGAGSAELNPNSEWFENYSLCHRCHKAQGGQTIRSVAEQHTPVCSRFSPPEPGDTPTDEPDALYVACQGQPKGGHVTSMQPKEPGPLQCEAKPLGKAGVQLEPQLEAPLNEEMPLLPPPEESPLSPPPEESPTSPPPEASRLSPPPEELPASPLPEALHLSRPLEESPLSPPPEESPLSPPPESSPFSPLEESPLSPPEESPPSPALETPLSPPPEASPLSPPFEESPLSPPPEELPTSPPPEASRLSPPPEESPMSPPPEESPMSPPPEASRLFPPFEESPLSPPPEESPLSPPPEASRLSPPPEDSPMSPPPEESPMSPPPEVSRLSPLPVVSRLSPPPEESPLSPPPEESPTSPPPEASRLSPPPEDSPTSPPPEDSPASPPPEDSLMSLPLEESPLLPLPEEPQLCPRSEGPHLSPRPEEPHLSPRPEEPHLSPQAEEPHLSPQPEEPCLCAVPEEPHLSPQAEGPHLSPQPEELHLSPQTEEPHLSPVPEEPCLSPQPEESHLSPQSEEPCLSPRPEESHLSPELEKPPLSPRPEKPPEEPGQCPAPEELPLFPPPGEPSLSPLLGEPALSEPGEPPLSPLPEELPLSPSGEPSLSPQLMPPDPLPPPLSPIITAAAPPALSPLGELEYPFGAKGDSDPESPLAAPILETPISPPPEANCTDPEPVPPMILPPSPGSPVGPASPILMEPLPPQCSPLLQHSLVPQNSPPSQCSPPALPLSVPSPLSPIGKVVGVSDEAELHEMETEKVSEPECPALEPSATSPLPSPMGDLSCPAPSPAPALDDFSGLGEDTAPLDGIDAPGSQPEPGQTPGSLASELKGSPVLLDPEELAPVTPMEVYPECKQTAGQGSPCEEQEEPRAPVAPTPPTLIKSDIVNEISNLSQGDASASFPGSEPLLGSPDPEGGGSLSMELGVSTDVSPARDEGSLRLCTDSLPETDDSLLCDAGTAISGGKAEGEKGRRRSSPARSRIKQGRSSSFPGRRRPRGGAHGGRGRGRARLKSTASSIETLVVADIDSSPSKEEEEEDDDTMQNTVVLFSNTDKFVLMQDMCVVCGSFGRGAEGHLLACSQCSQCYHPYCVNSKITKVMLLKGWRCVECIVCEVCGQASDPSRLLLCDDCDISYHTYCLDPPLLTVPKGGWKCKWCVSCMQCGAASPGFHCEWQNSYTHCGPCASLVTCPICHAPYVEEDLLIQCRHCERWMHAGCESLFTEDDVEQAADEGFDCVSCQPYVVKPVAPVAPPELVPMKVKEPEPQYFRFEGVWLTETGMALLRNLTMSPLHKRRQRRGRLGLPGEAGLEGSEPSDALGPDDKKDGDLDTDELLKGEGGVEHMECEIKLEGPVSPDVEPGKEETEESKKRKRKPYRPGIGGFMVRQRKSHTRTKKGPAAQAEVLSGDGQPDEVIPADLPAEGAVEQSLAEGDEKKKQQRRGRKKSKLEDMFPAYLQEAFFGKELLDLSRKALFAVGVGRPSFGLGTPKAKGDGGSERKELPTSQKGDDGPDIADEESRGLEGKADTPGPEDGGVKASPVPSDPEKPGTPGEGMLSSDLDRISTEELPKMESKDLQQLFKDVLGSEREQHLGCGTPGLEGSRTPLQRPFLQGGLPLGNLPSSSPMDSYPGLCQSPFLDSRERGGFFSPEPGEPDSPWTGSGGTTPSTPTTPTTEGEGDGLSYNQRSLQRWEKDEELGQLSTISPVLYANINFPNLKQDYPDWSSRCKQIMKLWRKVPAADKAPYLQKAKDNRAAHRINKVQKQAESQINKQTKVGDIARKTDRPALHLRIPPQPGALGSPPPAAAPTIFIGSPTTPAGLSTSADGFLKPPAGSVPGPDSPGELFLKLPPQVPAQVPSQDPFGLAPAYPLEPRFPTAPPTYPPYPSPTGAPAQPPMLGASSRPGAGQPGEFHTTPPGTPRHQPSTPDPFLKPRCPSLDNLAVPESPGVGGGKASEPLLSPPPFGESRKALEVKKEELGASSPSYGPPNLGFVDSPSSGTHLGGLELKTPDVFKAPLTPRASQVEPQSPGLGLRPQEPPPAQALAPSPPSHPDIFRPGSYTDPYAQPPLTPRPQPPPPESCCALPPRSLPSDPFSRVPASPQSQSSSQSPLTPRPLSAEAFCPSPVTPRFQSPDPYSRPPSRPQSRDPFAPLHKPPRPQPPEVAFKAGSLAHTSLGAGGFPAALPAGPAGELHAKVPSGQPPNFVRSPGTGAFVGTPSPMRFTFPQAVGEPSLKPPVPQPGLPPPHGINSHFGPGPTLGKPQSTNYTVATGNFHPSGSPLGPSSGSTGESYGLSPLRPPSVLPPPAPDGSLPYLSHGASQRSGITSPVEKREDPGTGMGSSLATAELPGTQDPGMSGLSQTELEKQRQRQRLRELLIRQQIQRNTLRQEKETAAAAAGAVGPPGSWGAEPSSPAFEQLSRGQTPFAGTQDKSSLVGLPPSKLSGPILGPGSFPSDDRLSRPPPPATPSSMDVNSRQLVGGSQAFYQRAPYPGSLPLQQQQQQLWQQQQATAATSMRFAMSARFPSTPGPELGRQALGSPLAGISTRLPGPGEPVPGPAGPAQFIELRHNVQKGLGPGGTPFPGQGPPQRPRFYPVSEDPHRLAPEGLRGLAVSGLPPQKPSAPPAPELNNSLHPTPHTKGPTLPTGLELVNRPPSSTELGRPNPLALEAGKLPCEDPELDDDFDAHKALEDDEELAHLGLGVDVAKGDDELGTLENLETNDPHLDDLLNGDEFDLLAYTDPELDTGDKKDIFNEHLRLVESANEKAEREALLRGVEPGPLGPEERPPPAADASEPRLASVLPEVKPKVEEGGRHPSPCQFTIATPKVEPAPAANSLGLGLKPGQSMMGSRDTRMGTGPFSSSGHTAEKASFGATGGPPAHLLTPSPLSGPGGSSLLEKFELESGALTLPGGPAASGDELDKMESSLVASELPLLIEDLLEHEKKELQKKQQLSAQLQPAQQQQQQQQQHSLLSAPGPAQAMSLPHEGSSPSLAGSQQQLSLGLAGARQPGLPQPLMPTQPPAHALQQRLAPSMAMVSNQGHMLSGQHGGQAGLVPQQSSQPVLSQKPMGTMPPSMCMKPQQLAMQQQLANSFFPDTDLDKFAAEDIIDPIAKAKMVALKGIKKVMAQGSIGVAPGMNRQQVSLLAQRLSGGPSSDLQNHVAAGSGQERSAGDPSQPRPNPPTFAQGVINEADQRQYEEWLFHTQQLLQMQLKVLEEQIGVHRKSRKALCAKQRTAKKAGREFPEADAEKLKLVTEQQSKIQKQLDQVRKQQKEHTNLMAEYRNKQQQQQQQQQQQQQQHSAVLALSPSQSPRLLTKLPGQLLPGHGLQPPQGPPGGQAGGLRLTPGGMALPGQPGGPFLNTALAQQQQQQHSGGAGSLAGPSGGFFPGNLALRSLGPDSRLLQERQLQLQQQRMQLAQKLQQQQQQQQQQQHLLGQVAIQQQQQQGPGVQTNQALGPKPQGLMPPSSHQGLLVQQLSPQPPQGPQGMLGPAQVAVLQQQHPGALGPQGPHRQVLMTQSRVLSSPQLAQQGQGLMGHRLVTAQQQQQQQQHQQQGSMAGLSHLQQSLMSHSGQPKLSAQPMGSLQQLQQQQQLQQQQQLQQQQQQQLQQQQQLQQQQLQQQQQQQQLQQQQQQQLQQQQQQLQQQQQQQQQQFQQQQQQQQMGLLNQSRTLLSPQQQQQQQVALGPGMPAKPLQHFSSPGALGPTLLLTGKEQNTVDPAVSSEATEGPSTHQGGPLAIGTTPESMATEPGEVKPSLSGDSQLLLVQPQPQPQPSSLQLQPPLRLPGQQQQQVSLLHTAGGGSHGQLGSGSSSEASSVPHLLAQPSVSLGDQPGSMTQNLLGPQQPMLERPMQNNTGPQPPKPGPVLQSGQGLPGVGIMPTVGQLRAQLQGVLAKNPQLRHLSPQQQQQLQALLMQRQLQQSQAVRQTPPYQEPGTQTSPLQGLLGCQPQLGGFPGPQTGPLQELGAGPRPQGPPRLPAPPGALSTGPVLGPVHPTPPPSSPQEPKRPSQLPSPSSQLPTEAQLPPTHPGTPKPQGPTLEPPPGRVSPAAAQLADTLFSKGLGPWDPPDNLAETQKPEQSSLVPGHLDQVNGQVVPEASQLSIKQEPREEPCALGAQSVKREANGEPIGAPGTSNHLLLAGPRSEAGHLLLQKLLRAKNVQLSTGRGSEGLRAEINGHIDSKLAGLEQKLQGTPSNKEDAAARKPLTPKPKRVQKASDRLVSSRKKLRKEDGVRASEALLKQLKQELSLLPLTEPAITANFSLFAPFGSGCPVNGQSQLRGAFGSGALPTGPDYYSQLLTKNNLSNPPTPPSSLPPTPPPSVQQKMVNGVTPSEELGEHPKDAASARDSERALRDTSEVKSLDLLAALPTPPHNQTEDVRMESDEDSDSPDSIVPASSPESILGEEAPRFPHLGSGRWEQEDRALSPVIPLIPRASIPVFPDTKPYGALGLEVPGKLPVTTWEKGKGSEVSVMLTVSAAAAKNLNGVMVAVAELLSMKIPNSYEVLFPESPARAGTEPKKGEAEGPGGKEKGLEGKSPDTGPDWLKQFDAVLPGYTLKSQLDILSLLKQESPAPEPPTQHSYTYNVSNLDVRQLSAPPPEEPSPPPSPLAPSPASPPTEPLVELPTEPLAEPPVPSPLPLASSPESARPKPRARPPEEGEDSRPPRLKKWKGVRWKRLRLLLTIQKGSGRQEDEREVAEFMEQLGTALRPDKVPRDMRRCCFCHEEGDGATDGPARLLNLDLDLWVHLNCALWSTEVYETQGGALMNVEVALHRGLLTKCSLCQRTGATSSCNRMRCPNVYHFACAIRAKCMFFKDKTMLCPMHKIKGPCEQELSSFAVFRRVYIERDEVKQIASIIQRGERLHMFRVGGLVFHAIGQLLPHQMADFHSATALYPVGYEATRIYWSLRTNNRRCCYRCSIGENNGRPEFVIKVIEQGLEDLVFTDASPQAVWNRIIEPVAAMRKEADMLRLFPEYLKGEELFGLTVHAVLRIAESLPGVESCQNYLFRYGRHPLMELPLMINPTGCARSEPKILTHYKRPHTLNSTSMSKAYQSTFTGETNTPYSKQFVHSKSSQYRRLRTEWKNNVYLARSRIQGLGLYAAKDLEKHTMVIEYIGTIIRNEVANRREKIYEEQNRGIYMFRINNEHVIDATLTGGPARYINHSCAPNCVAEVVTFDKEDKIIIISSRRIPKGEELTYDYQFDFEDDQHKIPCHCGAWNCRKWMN

Compound: COC(=O)C#Cc1ccccc1 [methyl 3-phenylpropiolate]
Experiment: log2 ratio of iodoacetamide-alkyne labeling of the cysteine site, DMSO over compound (competition); higher = stronger covalent engagement of the cysteine by the compound, active = 1 or more
Conditions: 500 µM; treatment time 1 h; system: HEK293T cell lysate
Summary of the method: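 Electrophile (500 µM) or vehicle was added to HEK293T lysate (2 mg/mL) for 1 h at ambient temperature before iodoacetamide alkyne labelling (1 h) and click coupling to sCIP-TMT reagents. After pooling, overnight trypsin digestion at 37 °C, streptavidin enrichment and acid elution, peptides were measured by Orbitrap Eclipse LC-MS/MS with FAIMS and quantified in FragPipe. Each cysteine's log2 competition ratio compares mean control-channel with mean compound-channel reporter intensity, control over compound. Data came from duplicate channels across three replicates, excluding cysteines quantified in only one replicate.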

| Target | log2 ratio of iodoacetamide-alkyne labeling |
| --- | --- |
| IRS4 C1065 (UniProt O14654) | inactive: 0.793 |
| UniProt O00213_C672 | inactive: 0.552 |
| KIF2A C406 (UniProt O00139) | inactive: 0.164 |
| NVL C626 (UniProt O15381) | inactive: 0.651 |
| PPM1G C13 (UniProt O15355) | inactive: 0.0286 |
| UniProt O00506_C357 | inactive: 0.395 |
| NKRF C424 (UniProt O15226) | inactive: 0.422 |
| NVL C359 (UniProt O15381) | inactive: -0.043 |
| UniProt O14733_C360 | inactive: -0.0389 |
| PGRMC2 C159 (UniProt O15173) | inactive: 0.159 |
| SMCHD1 C897 (UniProt A6NHR9) | inactive: 0.408 |
| TNRC18 C2204 (UniProt O15417) | inactive: 0.151 |
| PFAS C108 (UniProt O15067) | inactive: 0.0713 |
| GEMIN2 C89 (UniProt O14893) | inactive: 0.0396 |
| UniProt O14618_C227 | inactive: 0.371 |
| TRAFD1 C267 (UniProt O14545) | inactive: 0.282 |
| PFAS C871 (UniProt O15067) | inactive: 0.199 |
| MYO1C C161 (UniProt O00159) | inactive: 0.339 |
| PDLIM1 C260 (UniProt O00151) | inactive: -0.234 |
| EIF3F C256 (UniProt O00303) | inactive: 0.365 |
| UniProt O15042_C291 | active: 1 |

| Target | log2 ratio of iodoacetamide-alkyne labeling |
| --- | --- |
| MPHOSPH10 C27 (UniProt O00566) | inactive: 0.0995 |
| UniProt O14715_C1431 | inactive: 0.0806 |
| MGST3 C56 (UniProt O14880) | inactive: 0.0847 |
| DVL2 C354 (UniProt O14641) | inactive: 0.289 |
| EIF3D C19 (UniProt O15371) | inactive: 0.173 |
| IPO5 C420 (UniProt O00410) | inactive: 0.232 |
| HGS C190 (UniProt O14964) | inactive: 0.0953 |
| POLRMT C591 (UniProt O00411) | inactive: -0.567 |
| UniProt O15063_C512 | inactive: 0.782 |
| WDR46 C172 (UniProt O15213) | inactive: 0.382 |
| ATOX1 C12 (UniProt O00244) | active: 1.27 |
| EXOC5 C517 (UniProt O00471) | inactive: 0.256 |
| PDLIM1 C263 (UniProt O00151) | inactive: -0.0189 |
| UniProt O14979_C303 | inactive: 0.0868 |
| AP3D1 C1133 (UniProt O14617) | inactive: -0.597 |
| IRS4 C332 (UniProt O14654) | inactive: 0.39 |
| CLIC1 C223 (UniProt O00299) | inactive: -0.133 |
| PJA2 C224 (UniProt O43164) | inactive: 0.22 |
| EXOC5 C675 (UniProt O00471) | inactive: 0.193 |
| SPTLC1 C100 (UniProt O15269) | inactive: -0.144 |
| POLRMT C413 (UniProt O00411) | inactive: 0.16 |

| Target | log2 ratio of iodoacetamide-alkyne labeling |
| --- | --- |
| PIK3R2 C396 (UniProt O00459) | inactive: -0.0814 |
| ARPC3 C162 (UniProt O15145) | inactive: 0.237 |
| NKRF C453 (UniProt O15226) | inactive: 0.34 |
| TCERG1 C1062 (UniProt O14776) | inactive: 0.116 |
| TNFRSF10B C341 (UniProt O14763) | inactive: -0.256 |
| PHGDH C48 (UniProt O43175) | inactive: -0.108 |
| SPTBN2 C2043 (UniProt O15020) | inactive: 0.128 |
| UniProt B3KU38_C358 | inactive: 0.785 |
| WDR46 C456 (UniProt O15213) | inactive: 0.493 |
| INPPL1 C5 (UniProt O15357) | inactive: 0.416 |
| OGT C962 (UniProt O15294) | inactive: -0.0164 |
| FANCG C417 (UniProt O15287) | inactive: 0.36 |
| ARID1A C1968 (UniProt O14497) | inactive: 0.5 |
| PGRMC1 C129 (UniProt O00264) | inactive: 0.0627 |
| ARHGAP6 C769 (UniProt O43182) | inactive: 0.557 |
| KMT2D C2249 (UniProt O14686) | inactive: 0.651 |
| UniProt O14979_C277 | inactive: -0.198 |
| KMT2D C58 (UniProt O14686) | inactive: 0.263 |
| TRIM24 C56 (UniProt O15164) | inactive: 0.0454 |

Exported as comma-separated lines: part of the list above.
Target,log2 ratio of iodoacetamide-alkyne labeling
ARHGAP6 C769 (UniProt O43182),inactive: 0.557
KMT2D C2249 (UniProt O14686),inactive: 0.651
UniProt O14979_C277,inactive: -0.198
KMT2D C58 (UniProt O14686),inactive: 0.263
